The text below walks through data of WO2019109974A1.

Sequences of proteins named here, by UniProt entry; tags and fusion partners are left off. A change or cut given only in a name is not applied to a line headed by its entry. Residues count along the entry.
UniProt Q9NZQ7, residues 19-239: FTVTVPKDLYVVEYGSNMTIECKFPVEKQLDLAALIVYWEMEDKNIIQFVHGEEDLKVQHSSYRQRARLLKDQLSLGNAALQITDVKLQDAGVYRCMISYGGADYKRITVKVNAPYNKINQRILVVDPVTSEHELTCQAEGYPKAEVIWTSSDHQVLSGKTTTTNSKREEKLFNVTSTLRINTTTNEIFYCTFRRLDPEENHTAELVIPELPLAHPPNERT

Results are given in words; binding and its absence hold for the method and conditions named. Some binding calls cover weakened binding; strength is not graded here.

For the experiment, the target named is 人PD-L1抗原 (hPD-L1-his, Sino biological 10084-H08H-200) (human) (UniProt Q9NZQ7). Kind of experiment: SPR (Biacore T200), antibody captured by anti-human antibody on CM5, PD-L1-his as analyte. In general terms: In SPR one partner is held on a chip, and binding of the other changes the refractive index at the surface.

B1: hu-Chi1-3.4 (antibody, human IgG1, kappa, V domains shown)
VH: QVQLQESGPGLVKPSQTLSLTCTVSGYSITSDYWNWIRQHPGKGLEYIGYISYTGSTYYNPSLKSRVTISRDTSKNQFSLKLSSVTAADTAVYYCARGEAWDRRTLDYWGQGTLVTVSS
VL: DFQMTQSPSSLSASVGDRVTITCRASQDITNYLNWYQQKPDKAVKLLIYYTSRLHSGVPSRFSGSGSGTDFTLTISSLQPEDFATYYCQQVYTLPWTFGQGTKLEIKR
Take B1: the binding entry is listed as “binds”.
